Consider one molecule from paper doi:10.1101/2025.01.27.635192.

Results are given in words; binding and its absence hold for the method and conditions named. A result given as binding can be weak or reduced; the word gives no strength.

The target in this test is wild-type yeast α/β-tubulin heterodimer (S. cerevisiae (endogenous in S288C yeast)). The test can be described thus: TIRF microscopy of Kip3-mNeonGreen on surface-held microtubules.

B1: Kip3-mNeonGreen (protein, UniProt P53086 1-805)
chain: MNVPETRQSSIVVAIRVRPFTSMEKTRLVNEASGAEANFPGLGDSSLILPMSNNSDSDIDIDAEEGSTRSKRNSLLRRKVIRPEGIRKIVDCVDDRMLIFDPADRNPLNKVSDQVLNSMRARATKATASSINNSNATNKFSSQRRRHGGEIKFVFDKLFDETSSQARVYKETTSPLLDSVLDGFNSTVFAYGATGCGKTYTVSGTPSQPGIIFLAMEELFNKITDLKDEKDFEISLSYLEIYNERIRDLLKPETPSKRLVIREDTQNHIKVANLSYHHPNTVEDVMDLVVQGNINRTTSPTEANEVSSRSHAVLQIHIMQTNKLVDLTSQHTFATLSIIDLAGSERAAATRNRGIRLHEGANINRSLLALGNCINALCLNDGSRSCHIPYRDSKLTRLLKFSLGGNCKTVMIVCISPSSSHYDETLNTLKYANRAKEIKTKIIRNQQSLSRHVGSYLKMITEQKRQIEELREREEKMISLKLTKYKLNKEKIQLAINECVNRVQQTYAGVETYQVAKTLKSLILCKRRFLQMVKLEVDNLILLFEREESTAAEMQPVISNCRMISGQLYNKIHELEMKFDETDTLSSVIHQVHSIDLNKLREMEDWDETYDLVYLESCLNQISELQRNEILVNSSIMTEKLMSDPGLNSRFKFLSKWLMNRTPNIESIIQDLVHIDEEFESFARTFIANPDSNFTNTNINIINTTAADLAVPAETLQRQNFSQKKVKWTSPDLSPSPMIEPQPELEPELHQDQDAIASEVDVSMQDTTFNEQGPSTPSAPTTAVPRRKMRSSLLTHQSLLATARK
With B1, the binding entry was “binds”.
